Results deposited as PubChem BioAssay AID1259254 (NCATS, 2017)

- Screen: 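Gene knock-downs that lead to re-replication, shown by excess G2 DNA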 (primary screen)
- Cell system: human HCT116 colorectal cancer cells
- Reagent: single siRNA against human genes
- Duration: 3 days
- Measured: 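Nuclei stained with Hoechst and imaged; cell-cycle phase assigned by DNA content; G2 share scaled per plate, non-targeting siRNA 0%, GMNN siRNA 100%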
- Reading the numbers: G2 robust z-score and G2 cells, % of GMNN control: higher = more G2 cells, more excess DNA replication; raw share of cells in G2: higher = larger share of cells with G2 DNA content
- Hit rule: 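Active siRNAs have a G2 robust z of 5 or more median absolute deviations over the median, which in these data means about 38% or higher of GMNN control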
Here is a random part of about 59,000 reagents tested. About 1,550 of all reagents (2.6%) were called active. 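G2 share is only a proxy for re-replication; each gene was hit by three separate siRNAs, and active genes were retested.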 The raw values are shown without normalisation. Unmarked entries are inactive. Reagents against one gene are numbered here. Not given: the amount of reagent.

The first 3 records as a preview:
no.	gene knocked down	reagent	G2 robust z-score	G2 cells, % of GMNN control	raw share of cells in G2 (%)
1	MYLK4	1	-0.073	2.45	4.83
2	MYLK4	2	0.116	3.78	4.91
3	MYLK4	3	0.323	5.24	6.3

Main list, repeating the preview:
no.	gene knocked down	reagent	G2 robust z-score	G2 cells, % of GMNN control	raw share of cells in G2 (%)
1	MYLK4	1	-0.073	2.45	4.83
2	MYLK4	2	0.116	3.78	4.91
3	MYLK4	3	0.323	5.24	6.3
4	ABTB1	1	-0.764	-2.41	3.44
5	ABTB1	2	-0.368	0.376	4.47
6	ABTB1	3	-0.853	-3.04	1.55
7	EID3	1	0.407	5.83	5.87
8	EID3	2	-0.428	-0.0468	3.4
9	EID3	3	-0.587	-1.16	2.72
10	PBX2	1	2.12	17.9	10.6
11	PBX2	2	-0.777	-2.5	3.68
12	PBX2	3	-1.07	-4.55	1.46
13	CD48	1	1.08	10.6	7.74
14	CD48	2	-0.356	0.464	5.16
15	CD48	3	1.17	11.2	8.95
16	SRP9P1	1	-0.00631	2.92	3.65
17	SRP9P1	2	-0.699	-1.95	2.48
18	SRP9P1	3	-0.535	-0.796	2.88
19	CASP7	1	-0.116	2.15	6.31
20	CASP7	2	5.77 (active)	43.6	20.3
21	CASP7	3	-0.809	-2.72	2.89
22	RAB32	1	1.5	13.5	11.6
23	RAB32	2	-1.12	-4.91	2.25
24	RAB32	3	0.148	4.01	8.06
25	GREB1	1	-0.566	-1.02	4.87
26	GREB1	2	1.64	14.5	10
27	GREB1	3	-0.976	-3.9	1.99
28	UQCRB	1	2.16	18.1	11
29	UQCRB	2	-1.24	-5.76	3.16
30	UQCRB	3	1.26	11.9	8.38
31	DUSP22	1	-0.0453	2.65	4.29
32	DUSP22	2	0.66	7.61	7.27
33	DUSP22	3	-0.522	-0.706	4.09
34	LONRF1	1	-0.524	-0.717	5.34
35	LONRF1	2	0.586	7.09	8.01
36	LONRF1	3	-0.192	1.62	5.09
37	NUDT4	1	-0.441	-0.138	4.75
38	NUDT4	2	1.76	15.3	8.92
39	NUDT4	3	-0.00273	2.95	4.38
40	STARD4	1	1.78	15.5	11.2
41	STARD4	2	4.39	33.8	22.1
42	STARD4	3	1.27	11.9	9.05
43	LOC642696	1	-0.249	1.22	4.1
44	LOC642696	2	-0.00875	2.91	4.32
45	LOC642696	3	0.0729	3.48	4.16
46	RAD54L2	1	-0.848	-3	3.15
47	RAD54L2	2	4.78	36.6	16.4
48	RAD54L2	3	-0.736	-2.21	5.48
49	CXorf65	1	-0.31	0.788	3.01
50	CXorf65	2	-0.164	1.82	4.25
51	CXorf65	3	-0.388	0.241	3.04
52	RYBP	1	-0.231	1.34	3.97
53	RYBP	2	3.69	29	18.9
54	RYBP	3	1.53	13.7	9.08
55	TIMM21	1	0.826	8.78	7.21
56	TIMM21	2	0.62	7.33	7.32
57	TIMM21	3	-0.631	-1.47	2.79
58	SEMA3C	1	0.155	4.06	7.16
59	SEMA3C	2	1.44	13.1	9.42
60	SEMA3C	3	-0.53	-0.763	3.13
61	IL36G	1	6.2 (active)	46.6	22.7
62	IL36G	2	-0.238	1.29	5.08
63	IL36G	3	1.27	11.9	6.8
64	METTL23	1	0.456	6.18	6.57
65	METTL23	2	-0.579	-1.11	3
66	METTL23	3	-0.778	-2.51	1.09
67	SYT15	1	1.6	14.3	7.82
68	SYT15	2	-0.781	-2.53	4.77
69	SYT15	3	3.62	28.5	12.6
70	TLR10	1	-0.135	2.02	6.27
71	TLR10	2	-0.104	2.23	5
72	TLR10	3	-1.11	-4.83	3
73	ZSCAN21	1	0.9	9.3	9.53
74	ZSCAN21	2	-0.568	-1.03	3.88
75	ZSCAN21	3	1.01	10.1	7.79
76	RAB40AL	1	-0.532	-0.779	3.36
77	RAB40AL	2	-0.247	1.23	3.52
78	RAB40AL	3	-0.432	-0.0725	3.24
79	ENDOG	1	-0.862	-3.1	2.55
80	ENDOG	2	0.734	8.13	8.19
81	ENDOG	3	0.201	4.38	6.93
82	HHIPL1	1	1.58	14.1	8.8
83	HHIPL1	2	-0.458	-0.254	3.38
84	HHIPL1	3	-1.13	-4.96	0.901
85	IFNA7	1	-0.202	1.55	4.13
86	IFNA7	2	-1	-4.07	3.39
87	IFNA7	3	-0.713	-2.05	3.34
